Experimental data from patent publication US4956389A, “Compounds having calcium blocking activity” (priority 1982, dated 1990).

Assays:
[1] = tested on: synaptosomes of the brain of rats; assay: Inhibition of the Ca2+-uptake in synaptosomes of the brain of rats; type: biochemical, rat; conditions: 250 μM; 45CaCl2 1 mM; control 80 ± 7
Description: The synaptosomes have been prepared from an homogenate of the brain of rats by centrifugation in the gradient of Filcoll at 23,500 rpm for a period of 30 minutes and diluted to 1.5 mg/cc in the medium constituted by:
The substance YS 035 and nifedipine and papaverine, by way of comparison, have been added to the medium at a final concentration of 250 μM. After 15 minutes of preincubation, ^45 CaCl2, final concentration 1 mM (0.2μCi/cc is added to the medium).
The first determination has been carried out two minutes after the addition. The concentrations which have been found have been set as values at 0 time. The other controls have been carried out after 5 minutes, 10 minutes and 15 minutes. After each period, the reaction has been stopped by centrifugation and the radioactivity has been determined in the supernatant as well as in the pellet. The latter had been denatured previously with PCA, neutralized and subsequently centrifuged.
The results illustrated in the following Table 1 are expressed as the quantity of calcium transferred per mg of protein after the maximum period of incubation of 15 minutes.

[2] = tested on: mitochondria of liver of rats; assay: Study on the Ca2+-efflux in mitochondria of liver of rats; type: biochemical, rat; conditions: 250 μM
Description: The mitochondria of liver of rats prepared as in the preceding experiment were "charged" with Ca and subsequently, taken in a medium deprived of this ion. In the presence of an uncoupling agent or "Ruthenium Red", there is a flow of Ca^2+ ion from the mitochondria into the medium.
The results reported in Table 4 are expressed as the quantity of Ca transferred from the mitochondria per mg of protein per minute.

COC(=O)C1=C(C)NC(C)=C(C(=O)OC)C1c1ccccc1[N+](=O)[O-] [Nifedipine, reference compound]
Ca2+-uptake [1]: 42 ± 5 n g ions/mg prot/15 min
uncoupling action (in words) [2]: an uncoupling action of nifedipine has been noted
Ca2+-efflux induced by Ruthenium red ([2]; control 0.7): 2.2 n g ions/min. mg/prot
Ca2+-efflux induced by uncoupling agent ([2]; control 8.3): 8.5 n g ions/min. mg/prot
Ca2+-efflux ([2]; no inducer, control 0.0): 3.8 n g ions/min. mg/prot
